For at least one compound, name, drawing or mass did not settle the structure.
System: rat cortical neurons
Assay: Primary culture of cortical neurons injured with Aβ 1-42 (MAP-2 neuron survival and neurite network)
Type: cell-based
Settings: plate 2; at 0.1 and 0.3 μM; 1 h pre-incubation, Aβ 1-42 15 μM for 24 h; tested 10 nM-10 μM

With `CC/C=C\C/C=C\C/C=C\C/C=C\C/C=C\C/C=C\CCC(=O)O` [DHA, docosahexaenoic acid] the neuroprotective effect was “more modest neuroprotective effect”.
